{"source": "patent US7507727B2", "about": "“Substituted quinobenzoxazine analogs and methods of using thereof” (Cylene Pharmaceuticals, Inc., priority 2003, dated 2009)", "note": "Some of these results come from one statement about several compounds together. At least one compound was matched to its structure with a doubt left."}
{"biological_target": "c-Myc template DNA (c-myc quadruplex)", "test": "Quadruplex binding / stop assay (Taq polymerase arrest, capillary electrophoresis)", "details": "read-out: IC50 value in the stop assay; arrest product/full-length product ratio 1:1; FIG. 2", "units": {"IC50": "µM"}}
{"smiles": "O=C(O)c1cn(C2CC2)c2cc(N3CCNCC3)c(F)cc2c1=O", "note": "[ciprofloxacin]", "IC50": "> 100"}
{"smiles": "Cn1cc(NC(=O)c2cc(NC(=O)c3cc(NC=O)cn3C)cn2C)cc1C(=O)NCCC(=N)N", "note": "[distamycin]", "IC50": "> 100"}
{"smiles": "COc1cc(NS(C)(=O)=O)ccc1Nc1c2ccccc2nc2ccccc12", "note": "[m-AMSA]", "IC50": "> 100"}
